The assay concerns the target T1, Saccharolobus solfataricus GINS23 (Saccharolobus solfataricus).
T1 sequence: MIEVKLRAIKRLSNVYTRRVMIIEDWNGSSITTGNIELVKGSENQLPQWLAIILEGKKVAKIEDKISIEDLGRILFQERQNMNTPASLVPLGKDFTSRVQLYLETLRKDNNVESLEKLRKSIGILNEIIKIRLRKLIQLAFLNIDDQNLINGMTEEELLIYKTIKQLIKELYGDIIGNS
The assay can be described thus: crystal structure; co-expressed and co-purified SsoGINS tetramer, 11 mg/ml in 20 mM Tris pH 8.3, 100 mM NaCl; hanging drop, 0.18 M triammonium citrate, 20%(w/v) PEG 3350, 291 K; space group P6_(3), 2.3 Å; both purified.

Results are given in words; binding and its absence hold for the method and conditions named. Some binding calls cover weakened binding; strength is not graded here.

Here are results for one molecule from paper PMC12035558, “Structure of the Saccharolobus solfataricus GINS tetramer” (Acta Crystallographica Section F: Structural Biology …, 2025).

B1: Saccharolobus solfataricus GINS51 (natural protein)
chain: MLDELVKKELSEEEITEIKLEEIIKYITLIKKSKTFVSSEIRKEELKFLSELAESLFELRLSKVLEGKVGKGFDEFIFDIFKILKQFYVDLLTGRYIIYNDKIYCIVQKPLIYNDHRVNEGDVLVLPMREALPLIIASYLTPYKIDIEEQL
notes: GINS51 of Saccharolobus solfataricus, gene amplified from genomic DNA (ATCC 35092D-5); Two copies stand in the (GINS23)2(GINS51)2 tetramer; A subdomain (alpha-helical) comes first, B subdomain (with beta-strands) second; also called SsoGINS51; Sso51
With B1, the binding result is given as “binds”.
